Values from PubChem BioAssay AID1159578 (Peter MacCallum Cancer Centre, 2015)
Purpose: 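siRNA pools altering how lymphatic endothelial cells close a scratch wound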 (primary screen). Cells: human lymphatic endothelial cells. Reagent: siRNA pool against human genes, 40 nM. Timing: 48 h after transfection. Measured: 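High-content imaging of dye-stained cells in a scratch assay measures filled wound area and nuclei per well; duplicate means given as ratio to mock and robust z-score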. Direction: migration robust z-score: higher = faster migration into the scratch; nuclei per well: higher = more cells in the well. Call rule: 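Migration changed when robust z exceeds 2 or falls below -2 and mean nuclei number is at least 3300; otherwise not called changed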. Calls: active = migration changed; inactive = no migration change, or too few cells.
In all, the deposit lists about 18,000 reagents; this is a part drawn at random. About 1,030 of all reagents (5.7%) were called active. 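Inactive calls also include pools with fewer than 3300 nuclei, whose migration was not assessed.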 Raw values are not corrected between plates. Further read-outs or replicates are left out here.

SLC16A7 (GeneID 9194) | migration robust z-score: -1.4; migration class with cell-count check: migration z between -2 and 2; enough cells; nuclei per well, duplicate mean: 4950; outcome: inactive
OMD (GeneID 4958) | migration robust z-score: 0.09; migration class with cell-count check: migration z between -2 and 2; enough cells; nuclei per well, duplicate mean: 5623; outcome: inactive
KIF15 (GeneID 56992) | migration robust z-score: 1.53; migration class with cell-count check: migration z between -2 and 2; enough cells; nuclei per well, duplicate mean: 5479; outcome: inactive
CASD1 (GeneID 64921) | migration robust z-score: -2.1; migration class with cell-count check: migration z below -2; enough cells; nuclei per well, duplicate mean: 4981; outcome: active
PLA2G15 (GeneID 23659) | migration robust z-score: 0.86; migration class with cell-count check: migration z between -2 and 2; enough cells; nuclei per well, duplicate mean: 6316; outcome: inactive
RMI1 (GeneID 80010) | migration robust z-score: -0.38; migration class with cell-count check: migration z between -2 and 2; enough cells; nuclei per well, duplicate mean: 6082; outcome: inactive
OR5AC2 (GeneID 81050) | migration robust z-score: -0.5; migration class with cell-count check: migration z between -2 and 2; enough cells; nuclei per well, duplicate mean: 7531; outcome: inactive
TYROBP (GeneID 7305) | migration robust z-score: 0.44; migration class with cell-count check: migration z between -2 and 2; enough cells; nuclei per well, duplicate mean: 6924; outcome: inactive
VTN (GeneID 7448) | migration robust z-score: 0.78; migration class with cell-count check: migration z between -2 and 2; enough cells; nuclei per well, duplicate mean: 7046; outcome: inactive
C1D (GeneID 10438) | migration robust z-score: 0.6; migration class with cell-count check: migration z between -2 and 2; enough cells; nuclei per well, duplicate mean: 5924; outcome: inactive
SRSF10 (GeneID 10772) | migration robust z-score: 1.18; migration class with cell-count check: migration z between -2 and 2; enough cells; nuclei per well, duplicate mean: 5986; outcome: inactive
CD244 (GeneID 51744) | migration robust z-score: -0.45; migration class with cell-count check: migration z between -2 and 2; enough cells; nuclei per well, duplicate mean: 6283; outcome: inactive
LRRFIP2 (GeneID 9209) | migration robust z-score: 1.1; migration class with cell-count check: migration z between -2 and 2; enough cells; nuclei per well, duplicate mean: 5832; outcome: inactive
DZANK1 (GeneID 55184) | migration robust z-score: -0.98; migration class with cell-count check: migration z between -2 and 2; enough cells; nuclei per well, duplicate mean: 5292; outcome: inactive
PPFIBP1 (GeneID 8496) | migration robust z-score: -0.12; migration class with cell-count check: migration z between -2 and 2; enough cells; nuclei per well, duplicate mean: 5455; outcome: inactive
OR4A15 (GeneID 81328) | migration robust z-score: 1.5; migration class with cell-count check: migration z between -2 and 2; enough cells; nuclei per well, duplicate mean: 7142; outcome: inactive
MUC21 (GeneID 394263) | migration robust z-score: 1.75; migration class with cell-count check: migration z between -2 and 2; enough cells; nuclei per well, duplicate mean: 6782; outcome: inactive
CNGA3 (GeneID 1261) | migration robust z-score: -0.42; migration class with cell-count check: migration z between -2 and 2; enough cells; nuclei per well, duplicate mean: 6156; outcome: inactive
SPG7 (GeneID 6687) | migration robust z-score: 0.1; migration class with cell-count check: migration z between -2 and 2; enough cells; nuclei per well, duplicate mean: 5400; outcome: inactive
CSNK1D (GeneID 1453) | migration robust z-score: 0.31; migration class with cell-count check: migration z between -2 and 2; enough cells; nuclei per well, duplicate mean: 4286; outcome: inactive
CORO2A (GeneID 7464) | migration robust z-score: 0; migration class with cell-count check: migration z between -2 and 2; enough cells; nuclei per well, duplicate mean: 5430; outcome: inactive

Taken from above.
RMI1 (GeneID 80010), nuclei per well, duplicate mean → 6082
For “migration robust z-score”, KIF15 (GeneID 56992) has 1.53
Under “nuclei per well, duplicate mean”, SLC16A7 (GeneID 9194) reads 4950
